Measured values from the supplement of paper PMC10849652.
This is one part of the list.

By UniProt entry, the sequences of proteins in these tests, tags left out. Where a name states a change or a piece, a line headed by the entry shows the natural chain unless it says otherwise.
UniProt Q9BVC3, whole entry, looked up: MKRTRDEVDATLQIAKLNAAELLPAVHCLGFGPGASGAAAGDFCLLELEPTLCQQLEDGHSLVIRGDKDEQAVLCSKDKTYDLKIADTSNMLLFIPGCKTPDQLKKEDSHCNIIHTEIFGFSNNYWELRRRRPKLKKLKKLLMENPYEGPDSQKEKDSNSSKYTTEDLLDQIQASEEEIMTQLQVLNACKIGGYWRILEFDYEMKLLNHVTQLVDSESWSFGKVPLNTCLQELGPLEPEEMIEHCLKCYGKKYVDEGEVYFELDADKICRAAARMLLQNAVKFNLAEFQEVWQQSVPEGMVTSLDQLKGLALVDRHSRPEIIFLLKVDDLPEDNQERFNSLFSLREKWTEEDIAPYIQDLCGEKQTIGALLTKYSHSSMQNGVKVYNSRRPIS
UniProt Q9NY33: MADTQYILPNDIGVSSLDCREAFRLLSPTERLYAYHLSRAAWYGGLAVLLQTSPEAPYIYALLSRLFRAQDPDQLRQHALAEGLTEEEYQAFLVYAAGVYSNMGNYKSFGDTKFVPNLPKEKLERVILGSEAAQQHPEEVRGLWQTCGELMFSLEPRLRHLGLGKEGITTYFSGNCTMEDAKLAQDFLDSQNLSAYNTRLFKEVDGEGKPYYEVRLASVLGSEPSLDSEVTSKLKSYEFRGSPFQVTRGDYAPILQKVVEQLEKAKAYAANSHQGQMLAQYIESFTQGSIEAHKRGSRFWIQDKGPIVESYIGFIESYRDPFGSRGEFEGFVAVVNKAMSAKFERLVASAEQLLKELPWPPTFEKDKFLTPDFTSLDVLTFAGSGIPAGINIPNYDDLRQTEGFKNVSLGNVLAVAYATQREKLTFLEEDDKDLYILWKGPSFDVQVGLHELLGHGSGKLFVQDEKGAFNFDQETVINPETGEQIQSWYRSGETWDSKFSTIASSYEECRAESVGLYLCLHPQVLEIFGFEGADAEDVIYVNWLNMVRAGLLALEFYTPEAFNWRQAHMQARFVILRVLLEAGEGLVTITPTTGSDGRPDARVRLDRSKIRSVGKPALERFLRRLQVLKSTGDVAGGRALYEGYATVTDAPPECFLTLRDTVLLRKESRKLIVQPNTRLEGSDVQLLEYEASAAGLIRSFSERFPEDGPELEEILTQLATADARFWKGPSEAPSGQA
UniProt P63167, whole entry, looked up: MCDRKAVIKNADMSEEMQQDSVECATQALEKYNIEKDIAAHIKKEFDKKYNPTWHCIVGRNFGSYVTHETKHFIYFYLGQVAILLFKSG
UniProt Q96DC8: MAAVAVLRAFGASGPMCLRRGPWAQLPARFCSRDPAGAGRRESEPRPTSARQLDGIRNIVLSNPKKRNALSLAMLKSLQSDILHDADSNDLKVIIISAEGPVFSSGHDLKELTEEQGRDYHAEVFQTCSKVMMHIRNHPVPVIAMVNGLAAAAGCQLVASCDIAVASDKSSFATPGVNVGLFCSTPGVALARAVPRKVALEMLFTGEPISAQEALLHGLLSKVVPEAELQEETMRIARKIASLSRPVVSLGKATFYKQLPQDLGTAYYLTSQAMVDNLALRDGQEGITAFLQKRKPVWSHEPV
UniProt Q9GZT9: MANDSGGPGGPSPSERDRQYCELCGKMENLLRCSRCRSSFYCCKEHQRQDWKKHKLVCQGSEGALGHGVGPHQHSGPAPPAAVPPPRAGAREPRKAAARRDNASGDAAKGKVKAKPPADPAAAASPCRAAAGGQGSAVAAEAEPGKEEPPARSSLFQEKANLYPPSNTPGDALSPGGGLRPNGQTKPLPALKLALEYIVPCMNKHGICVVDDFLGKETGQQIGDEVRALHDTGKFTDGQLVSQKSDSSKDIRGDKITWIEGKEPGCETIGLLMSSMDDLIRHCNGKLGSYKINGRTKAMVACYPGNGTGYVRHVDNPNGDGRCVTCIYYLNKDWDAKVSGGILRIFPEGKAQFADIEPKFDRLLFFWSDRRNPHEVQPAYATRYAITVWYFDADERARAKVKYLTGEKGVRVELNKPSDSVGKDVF
UniProt Q9NX74: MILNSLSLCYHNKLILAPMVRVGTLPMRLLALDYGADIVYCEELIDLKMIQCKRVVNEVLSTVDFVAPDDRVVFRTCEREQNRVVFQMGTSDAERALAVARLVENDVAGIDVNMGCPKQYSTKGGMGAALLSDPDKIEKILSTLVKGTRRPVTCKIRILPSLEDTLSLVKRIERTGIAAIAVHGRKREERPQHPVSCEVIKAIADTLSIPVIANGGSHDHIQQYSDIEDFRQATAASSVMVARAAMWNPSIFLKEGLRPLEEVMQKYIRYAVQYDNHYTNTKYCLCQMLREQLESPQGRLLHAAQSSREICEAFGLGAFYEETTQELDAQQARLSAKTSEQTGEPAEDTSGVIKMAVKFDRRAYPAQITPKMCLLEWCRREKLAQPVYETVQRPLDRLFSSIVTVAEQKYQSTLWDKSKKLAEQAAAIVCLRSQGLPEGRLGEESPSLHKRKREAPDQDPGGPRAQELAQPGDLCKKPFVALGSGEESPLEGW
UniProt Q9BZG8: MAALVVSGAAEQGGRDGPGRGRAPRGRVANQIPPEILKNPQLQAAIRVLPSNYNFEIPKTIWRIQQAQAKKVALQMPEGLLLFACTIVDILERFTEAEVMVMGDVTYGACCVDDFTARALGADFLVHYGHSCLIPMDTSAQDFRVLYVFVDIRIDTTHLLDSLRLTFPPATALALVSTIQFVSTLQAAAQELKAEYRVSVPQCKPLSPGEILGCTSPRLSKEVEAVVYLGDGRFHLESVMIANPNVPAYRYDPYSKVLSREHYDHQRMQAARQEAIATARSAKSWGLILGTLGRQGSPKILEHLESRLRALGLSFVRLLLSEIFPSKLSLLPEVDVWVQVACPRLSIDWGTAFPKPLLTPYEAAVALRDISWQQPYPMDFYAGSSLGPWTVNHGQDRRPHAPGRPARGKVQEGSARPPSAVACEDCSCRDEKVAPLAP
UniProt Q9H2P9: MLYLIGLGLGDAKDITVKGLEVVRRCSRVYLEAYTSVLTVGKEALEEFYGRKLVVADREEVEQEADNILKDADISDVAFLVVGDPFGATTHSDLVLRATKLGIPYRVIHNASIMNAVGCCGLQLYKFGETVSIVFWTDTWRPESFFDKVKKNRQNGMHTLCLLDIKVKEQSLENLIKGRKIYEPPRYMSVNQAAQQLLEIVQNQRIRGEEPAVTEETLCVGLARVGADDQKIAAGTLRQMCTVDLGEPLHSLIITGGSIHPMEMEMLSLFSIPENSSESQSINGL
UniProt P63172, whole entry, looked up: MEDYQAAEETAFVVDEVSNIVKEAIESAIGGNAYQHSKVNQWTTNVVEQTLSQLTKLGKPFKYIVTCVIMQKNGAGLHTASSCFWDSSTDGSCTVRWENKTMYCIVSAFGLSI
UniProt Q96F86: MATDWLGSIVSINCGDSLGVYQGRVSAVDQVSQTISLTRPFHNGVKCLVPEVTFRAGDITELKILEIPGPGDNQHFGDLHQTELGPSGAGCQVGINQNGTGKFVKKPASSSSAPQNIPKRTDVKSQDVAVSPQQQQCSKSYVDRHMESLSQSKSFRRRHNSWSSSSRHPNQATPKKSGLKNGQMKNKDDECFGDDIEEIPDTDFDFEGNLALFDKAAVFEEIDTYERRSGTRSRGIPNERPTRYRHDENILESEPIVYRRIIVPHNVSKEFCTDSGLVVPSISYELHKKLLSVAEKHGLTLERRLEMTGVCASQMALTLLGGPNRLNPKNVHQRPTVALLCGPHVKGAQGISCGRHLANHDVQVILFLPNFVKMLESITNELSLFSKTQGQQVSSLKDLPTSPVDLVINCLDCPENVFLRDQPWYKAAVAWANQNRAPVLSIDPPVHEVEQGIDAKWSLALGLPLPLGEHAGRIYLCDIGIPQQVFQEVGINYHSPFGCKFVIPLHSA
UniProt Q15029: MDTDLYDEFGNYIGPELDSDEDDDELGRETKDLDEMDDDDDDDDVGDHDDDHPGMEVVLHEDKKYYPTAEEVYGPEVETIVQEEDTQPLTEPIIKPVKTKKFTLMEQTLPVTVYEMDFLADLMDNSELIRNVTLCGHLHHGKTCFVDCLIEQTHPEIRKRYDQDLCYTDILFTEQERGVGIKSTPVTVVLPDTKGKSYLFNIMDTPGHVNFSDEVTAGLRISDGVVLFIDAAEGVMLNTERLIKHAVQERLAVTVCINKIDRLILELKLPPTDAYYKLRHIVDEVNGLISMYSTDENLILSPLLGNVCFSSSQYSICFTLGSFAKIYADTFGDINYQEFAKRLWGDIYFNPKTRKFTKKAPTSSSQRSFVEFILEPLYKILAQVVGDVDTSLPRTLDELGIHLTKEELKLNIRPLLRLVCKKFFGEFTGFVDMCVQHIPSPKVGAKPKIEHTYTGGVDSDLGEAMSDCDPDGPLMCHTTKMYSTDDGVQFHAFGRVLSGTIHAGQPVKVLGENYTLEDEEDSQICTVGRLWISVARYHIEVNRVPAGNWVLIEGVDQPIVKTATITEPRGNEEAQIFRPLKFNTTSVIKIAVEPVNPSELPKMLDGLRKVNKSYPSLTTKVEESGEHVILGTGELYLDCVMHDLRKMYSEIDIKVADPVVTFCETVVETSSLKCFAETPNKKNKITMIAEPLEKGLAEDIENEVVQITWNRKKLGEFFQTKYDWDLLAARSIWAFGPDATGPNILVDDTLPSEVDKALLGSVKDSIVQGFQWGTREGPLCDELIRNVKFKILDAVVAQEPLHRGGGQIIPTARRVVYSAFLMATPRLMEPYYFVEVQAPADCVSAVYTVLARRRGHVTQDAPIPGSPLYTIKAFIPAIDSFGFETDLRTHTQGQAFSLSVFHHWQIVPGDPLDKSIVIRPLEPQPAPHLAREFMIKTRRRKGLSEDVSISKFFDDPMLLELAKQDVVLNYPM
UniProt O14641: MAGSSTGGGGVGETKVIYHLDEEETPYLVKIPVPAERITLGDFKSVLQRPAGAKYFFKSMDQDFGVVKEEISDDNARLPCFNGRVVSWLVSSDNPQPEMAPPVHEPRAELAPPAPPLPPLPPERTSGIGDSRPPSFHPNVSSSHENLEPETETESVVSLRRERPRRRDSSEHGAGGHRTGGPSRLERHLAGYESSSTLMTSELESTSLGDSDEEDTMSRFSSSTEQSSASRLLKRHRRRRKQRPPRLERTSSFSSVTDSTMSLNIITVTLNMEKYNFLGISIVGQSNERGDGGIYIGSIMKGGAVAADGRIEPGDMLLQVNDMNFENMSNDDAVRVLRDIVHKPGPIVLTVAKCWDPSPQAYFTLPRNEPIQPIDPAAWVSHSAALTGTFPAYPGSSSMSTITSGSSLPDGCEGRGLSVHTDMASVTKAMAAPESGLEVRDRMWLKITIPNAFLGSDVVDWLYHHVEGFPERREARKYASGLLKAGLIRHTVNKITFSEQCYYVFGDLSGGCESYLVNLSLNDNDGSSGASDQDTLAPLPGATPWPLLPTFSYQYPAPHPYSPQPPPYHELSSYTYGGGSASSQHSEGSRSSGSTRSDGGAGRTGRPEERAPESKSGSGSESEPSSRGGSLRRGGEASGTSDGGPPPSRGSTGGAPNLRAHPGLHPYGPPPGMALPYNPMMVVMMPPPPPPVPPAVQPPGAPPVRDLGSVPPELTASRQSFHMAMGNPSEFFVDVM
UniProt O43237, whole entry, looked up: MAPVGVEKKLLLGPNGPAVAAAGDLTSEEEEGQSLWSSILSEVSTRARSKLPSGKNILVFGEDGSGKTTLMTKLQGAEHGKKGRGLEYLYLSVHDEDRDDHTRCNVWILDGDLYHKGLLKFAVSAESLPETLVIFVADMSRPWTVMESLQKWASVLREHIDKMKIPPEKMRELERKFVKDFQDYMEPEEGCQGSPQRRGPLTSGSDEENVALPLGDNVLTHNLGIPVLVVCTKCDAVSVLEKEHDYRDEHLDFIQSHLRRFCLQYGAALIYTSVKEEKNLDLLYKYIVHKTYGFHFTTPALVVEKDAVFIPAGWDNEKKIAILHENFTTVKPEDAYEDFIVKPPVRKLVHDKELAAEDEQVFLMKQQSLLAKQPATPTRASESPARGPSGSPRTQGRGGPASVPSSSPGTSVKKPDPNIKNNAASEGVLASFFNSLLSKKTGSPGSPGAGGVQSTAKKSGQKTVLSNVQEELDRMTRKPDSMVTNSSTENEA

Assays:
Assay in all cases: log2 fold change, soluble protein after heating vs DMSO (PISA); higher = thermal stabilisation; K562 lysate, 10 uM; active = over 0.2 and 3.5 SD of the protein, either way, in both replicates (recomputed)
alvocidib = compound: CN1CC[C@H](c2c(O)cc(O)c3c(=O)cc(-c4ccccc4Cl)oc23)[C@H](O)C1 [alvocidib]
Summary of the method: (§1)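 To prepare the extract, K562 pellets were dounce-homogenised in PBS pH 7.4 with 1 mM MgCl2, giving crude material at 1 mg/mL protein. This was treated with 10 μM compound for 30 min, then heated in aliquots for 3 min over 48°C-58°C before pooling and addition of NP-40 to 0.5% at 4°C. Centrifugation at 21,000xg for 90 min left soluble protein in the supernatant, which TMTpro 16plex LC-MS/MS quantified with equalised channel sums. Results are log-two fold changes in thermal stability compared with solvent controls, from duplicates.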

Tubastatin A = compound: CN1CCc2c(c3ccccc3n2Cc2ccc(C(=O)NO)cc2)C1 [Tubastatin A]
Summary of the method: as §1

[1] = compound: CNC(=O)C1=CC=CC=C1NC2=NC(=NC=C2Cl)NC3=C(C=C(C=C3)N4CCOCC4)OC
Summary of the method: as §1

defactinib = compound: CNC(=O)c1ccc(Nc2ncc(C(F)(F)F)c(NCc3nccnc3N(C)S(C)(=O)=O)n2)cc1 [defactinib]
Summary of the method: as §1

[2] = compound: CNc1nc(-c2ccc3c(N)n[nH]c3c2)cc(N2C[C@@H](C(=O)NC3CCCCC3)CC[C@H]2C)n1
Summary of the method: as §1

encorafenib = compound: COC(=O)N[C@@H](C)CNc1nccc(-c2cn(C(C)C)nc2-c2cc(Cl)cc(NS(C)(=O)=O)c2F)n1 [encorafenib]
Summary of the method: as §1

[3] = compound: COC(=O)[C@H](CCSC)NC(=O)C1=C(C=C(C=C1)NC[C@H](CS)N)C2=CC=CC=C2
Summary of the method: as §1

alisertib = compound: COc1cc(Nc2ncc3c(n2)-c2ccc(Cl)cc2C(c2c(F)cccc2OC)=NC3)ccc1C(=O)O [alisertib]
Summary of the method: as §1

[4] = compound: COc1cc2nc(-c3cc(F)ccc3O)nc(N[C@@H]3CNC[C@H]3C(C)(C)O)c2cc1OC
Summary of the method: as §1

gefitinib = compound: COc1cc2ncnc(Nc3ccc(F)c(Cl)c3)c2cc1OCCCN1CCOCC1 [gefitinib]
Summary of the method: as §1

lapatinib = compound: CS(=O)(=O)CCNCc1ccc(-c2ccc3ncnc(Nc4ccc(OCc5cccc(F)c5)c(Cl)c4)c3c2)o1 [lapatinib]
Summary of the method: as §1

pictilisib = compound: CS(=O)(=O)N1CCN(Cc2cc3nc(-c4cccc5[nH]ncc45)nc(N4CCOCC4)c3s2)CC1 [pictilisib]
Summary of the method: as §1

crizotinib = compound: C[C@@H](Oc1cc(-c2cnn(C3CCNCC3)c2)cnc1N)c1c(Cl)ccc(F)c1Cl [crizotinib]
Summary of the method: as §1

[5] = compound: C[C@H](C1=CC=C(C=C1)C(=O)NC2=C3C=CNC3=NC=C2)N
Summary of the method: as §1

duvelisib = compound: C[C@H](Nc1ncnc2nc[nH]c12)c1cc2cccc(Cl)c2c(=O)n1-c1ccccc1 [duvelisib]
Summary of the method: as §1

gandotinib = compound: Cc1cc(Nc2cc(CN3CCOCC3)c3nc(C)c(Cc4ccc(Cl)cc4F)n3n2)n[nH]1 [gandotinib]
Summary of the method: as §1

tozasertib = compound: Cc1cc(Nc2cc(N3CCN(C)CC3)nc(Sc3ccc(NC(=O)C4CC4)cc3)n2)n[nH]1 [tozasertib]
Summary of the method: as §1

doramapimod = compound: Cc1ccc(-n2nc(C(C)(C)C)cc2NC(=O)Nc2ccc(OCCN3CCOCC3)c3ccccc23)cc1 [doramapimod]
Summary of the method: as §1

bafetinib = compound: Cc1ccc(NC(=O)c2ccc(CN3CC[C@H](N(C)C)C3)c(C(F)(F)F)c2)cc1Nc1nccc(-c2cncnc2)n1 [bafetinib]
Summary of the method: as §1

[6] = compound: Cc1cccc(CC(=O)N2CCc3c2ccc(-c2cn(C)c4ncnc(N)c24)c3F)n1
Summary of the method: as §1

Measured: log2 fold change

DSCC1 (UniProt Q9BVC3)
inactive: alvocidib -0.026 | Tubastatin A -0.002 | [1] 0.05 | defactinib -0.027 | [2] 0.03 | encorafenib 0.096 | [3] 0.048 | alisertib 0.05 | [4] 0.171 | gefitinib -0.066 | lapatinib 0.022 | pictilisib -0.045 | crizotinib -0.07 | [5] -0.021 | duvelisib -0.028 | gandotinib 0.006 | tozasertib -0.049 | doramapimod 0.056 | bafetinib -0.02 | [6] 0.011

DPP3 (UniProt Q9NY33)
inactive: alvocidib 0.032 | Tubastatin A -0.002 | [1] 0.005 | defactinib -0.03 | [2] -0.042 | encorafenib -0.028 | [3] 0.185 | alisertib 0.009 | [4] -0.013 | gefitinib -0.029 | lapatinib -0.008 | pictilisib -0.01 | crizotinib 0.025 | [5] 0.07 | duvelisib -0.011 | gandotinib -0.101 | tozasertib 0.008 | doramapimod -0.046 | bafetinib -0.032 | [6] -0.059

DPP9 isoform 2 (UniProt Q86TI2)
inactive: alvocidib 0.004 | Tubastatin A -0.013 | [1] 0.013 | defactinib 0.028 | [2] -0.014 | encorafenib 0 | [3] 0.029 | alisertib -0.029 | [4] 0.009 | gefitinib -0.015 | lapatinib -0.009 | pictilisib -0.029 | crizotinib 0.002 | [5] -0.006 | duvelisib -0.033 | gandotinib 0.003 | tozasertib 0.006 | doramapimod -0.013 | bafetinib -0.03 | [6] -0.007

DYNLL1 (UniProt P63167)
inactive: alvocidib 0 | Tubastatin A 0.048 | [1] 0.082 | defactinib 0.075 | [2] 0.011 | encorafenib -0.018 | [3] -0.026 | alisertib -0.015 | [4] -0.006 | gefitinib -0.067 | lapatinib 0.028 | pictilisib 0.001 | crizotinib -0.008 | [5] -0.059 | duvelisib 0.021 | gandotinib 0.021 | tozasertib 0.017 | doramapimod 0.02 | bafetinib 0.03 | [6] 0.053

ECHDC3 (UniProt Q96DC8)
inactive: alvocidib -0.015 | Tubastatin A 0.026 | [1] -0.001 | defactinib 0.138 | [2] -0.003 | encorafenib -0.06 | [3] 0.01 | alisertib 0.036 | [4] -0.028 | gefitinib 0.004 | lapatinib 0.012 | pictilisib -0.011 | crizotinib 0.002 | [5] 0.009 | duvelisib 0.021 | gandotinib 0.003 | tozasertib 0.187 | doramapimod -0.06 | bafetinib -0.021 | [6] -0.069

EEF1A1, A0A087WVQ9
inactive: alvocidib -0.005 | Tubastatin A -0.102 | [1] 0.042 | defactinib 0.062 | [2] 0.071 | encorafenib 0.011 | [3] 0.115 | alisertib -0.073 | [4] 0.026 | gefitinib -0.054 | lapatinib 0.028 | pictilisib -0.038 | crizotinib -0.02 | [5] 0.07 | duvelisib -0.021 | gandotinib 0.017 | tozasertib -0.08 | doramapimod -0.069 | bafetinib 0.068 | [6] -0.129

EGLN1 (UniProt Q9GZT9)
inactive: alvocidib -0.017 | Tubastatin A -0.088 | [1] 0.025 | defactinib 0.033 | [2] -0.026 | encorafenib 0 | [3] 0.091 | alisertib 0.009 | [4] 0.022 | gefitinib -0.003 | lapatinib -0.075 | pictilisib 0.031 | crizotinib -0.018 | [5] 0.037 | duvelisib 0.199 | gandotinib -0.036 | tozasertib 0.034 | doramapimod 0.006 | bafetinib 0.001 | [6] -0.055

DUS2 (UniProt Q9NX74)
active: [3] 0.352
inactive: alvocidib 0.056 | Tubastatin A -0.084 | [1] 0.013 | defactinib 0.016 | [2] -0.045 | encorafenib -0.027 | alisertib -0.007 | [4] 0.013 | gefitinib 0.026 | lapatinib -0.033 | pictilisib 0.04 | crizotinib 0.041 | [5] -0.032 | duvelisib 0.018 | gandotinib -0.051 | tozasertib 0.011 | doramapimod -0.01 | bafetinib -0.017 | [6] -0.009

Pulled one by one from the entries so far (2):
EGLN1 (UniProt Q9GZT9)
inactive: alvocidib -0.017 | Tubastatin A -0.088 | [1] 0.025 | defactinib 0.033 | [2] -0.026 | encorafenib 0 | [3] 0.091 | alisertib 0.009 | [4] 0.022 | gefitinib -0.003 | lapatinib -0.075 | pictilisib 0.031 | crizotinib -0.018 | [5] 0.037 | duvelisib 0.199 | gandotinib -0.036 | tozasertib 0.034 | doramapimod 0.006 | bafetinib 0.001 | [6] -0.055

EEF1A1, A0A087WVQ9
inactive: alvocidib -0.005 | Tubastatin A -0.102 | [1] 0.042 | defactinib 0.062 | [2] 0.071 | encorafenib 0.011 | [3] 0.115 | alisertib -0.073 | [4] 0.026 | gefitinib -0.054 | lapatinib 0.028 | pictilisib -0.038 | crizotinib -0.02 | [5] 0.07 | duvelisib -0.021 | gandotinib 0.017 | tozasertib -0.08 | doramapimod -0.069 | bafetinib 0.068 | [6] -0.129

Remaining list, next part

DPH1 (UniProt Q9BZG8)
inactive: alvocidib -0.045 | Tubastatin A 0.02 | [1] 0.009 | defactinib 0 | [2] -0.003 | encorafenib -0.002 | [3] 0.04 | alisertib 0.001 | [4] 0.001 | gefitinib 0.062 | lapatinib -0.008 | pictilisib -0.032 | crizotinib 0.013 | [5] -0.003 | duvelisib 0.014 | gandotinib -0.008 | tozasertib 0.01 | doramapimod -0.01 | bafetinib 0.012 | [6] -0.008

DPH5 isoform 5 (UniProt Q9H2P9)
inactive: alvocidib -0.012 | Tubastatin A 0.02 | [1] 0.119 | defactinib -0.002 | [2] 0.02 | encorafenib -0.044 | [3] -0.024 | alisertib -0.045 | [4] -0.018 | gefitinib 0.04 | lapatinib 0.009 | pictilisib 0.025 | crizotinib 0.126 | [5] -0.019 | duvelisib 0.128 | tozasertib 0.005 | doramapimod -0.024 | bafetinib 0.143 | [6] 0.101
active: gandotinib 0.495

EHMT2 (UniProt A2ABF8)
inactive: alvocidib -0.023 | Tubastatin A -0.127 | [1] 0.01 | defactinib -0.01 | [2] 0.011 | encorafenib 0.025 | [3] 0.077 | alisertib 0.015 | [4] 0.016 | gefitinib 0.047 | lapatinib -0.018 | pictilisib -0.029 | crizotinib -0.092 | [5] -0.017 | duvelisib -0.017 | gandotinib -0.007 | tozasertib 0.02 | doramapimod 0.008 | bafetinib -0.044 | [6] 0.023

DYNLT1 (UniProt P63172)
inactive: alvocidib -0.012 | Tubastatin A -0.098 | [1] -0.016 | defactinib -0.002 | [2] 0.008 | encorafenib 0.022 | [3] -0.084 | alisertib -0.067 | [4] 0.011 | gefitinib -0.071 | lapatinib 0.007 | pictilisib -0.033 | crizotinib -0.044 | [5] -0.015 | duvelisib -0.019 | gandotinib -0.012 | tozasertib -0.012 | doramapimod -0.034 | bafetinib -0.004 | [6] 0.021

EDC3 (UniProt Q96F86)
inactive: alvocidib -0.045 | Tubastatin A -0.1 | [1] 0.003 | defactinib 0.009 | [2] 0.038 | encorafenib 0.019 | [3] -0.071 | alisertib 0.025 | [4] -0.02 | gefitinib -0.042 | lapatinib -0.007 | pictilisib -0.034 | crizotinib -0.012 | [5] -0.021 | duvelisib 0.014 | gandotinib 0.032 | tozasertib -0.007 | doramapimod 0.024 | bafetinib -0.008 | [6] -0.003

EFTUD2 (UniProt Q15029)
inactive: alvocidib 0.017 | Tubastatin A -0.01 | [1] 0.01 | defactinib -0.001 | [2] 0.034 | encorafenib -0.009 | [3] -0.03 | alisertib -0.009 | [4] -0.001 | gefitinib 0.001 | lapatinib -0.001 | pictilisib -0.011 | crizotinib 0.017 | [5] 0.039 | duvelisib -0.012 | gandotinib -0.008 | tozasertib -0.033 | doramapimod 0 | bafetinib 0.031 | [6] -0.039

DVL2 (UniProt O14641)
inactive: alvocidib 0.002 | Tubastatin A -0.079 | [1] -0.039 | defactinib 0.028 | [2] -0.027 | encorafenib -0.018 | [3] -0.036 | alisertib 0.003 | [4] -0.069 | gefitinib 0.006 | lapatinib 0.096 | pictilisib -0.037 | crizotinib -0.056 | [5] 0.026 | duvelisib 0 | gandotinib -0.107 | tozasertib -0.039 | doramapimod 0.106 | bafetinib -0.232 | [6] 0.054

DYNC1LI2 (UniProt O43237)
inactive: alvocidib 0.014 | Tubastatin A 0.097 | [1] 0.018 | defactinib -0.042 | [2] 0.037 | encorafenib 0.016 | [3] 0.018 | alisertib -0.04 | [4] 0.048 | gefitinib 0.085 | lapatinib -0.027 | pictilisib 0.02 | crizotinib -0.123 | [5] -0.022 | duvelisib 0.074 | gandotinib -0.017 | tozasertib -0.048 | doramapimod 0.059 | bafetinib -0.043 | [6] 0.019
